Source: article PMC8466936
These are yes or no findings as the source states them, for the method shown. Binding seen in cells or lysates may run through a third protein. Some results given as binding are weak or reduced against the parent protein; the word gives no strength. For some assays here: Sequences can lack the tags named with a protein.

T1: FLAG-CHIP WT (C-terminus of HSC70-interacting protein, encoded by STUB1) (human), Q9UNE7
T1 chain: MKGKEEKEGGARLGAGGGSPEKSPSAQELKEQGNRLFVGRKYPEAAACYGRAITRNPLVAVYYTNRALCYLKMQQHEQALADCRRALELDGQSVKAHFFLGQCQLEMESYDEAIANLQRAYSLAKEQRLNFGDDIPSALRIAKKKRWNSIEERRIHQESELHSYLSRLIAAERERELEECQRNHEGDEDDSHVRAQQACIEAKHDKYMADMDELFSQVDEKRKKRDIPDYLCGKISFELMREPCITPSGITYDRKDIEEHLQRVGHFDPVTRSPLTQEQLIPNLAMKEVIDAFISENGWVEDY


Assays:
[1] = biological target: FLAG-CHIP Δ278–303 (human) (UniProt Q9UNE7); experiment: co-IP; dimerization assay: SH-SY5Y and BE2-M17 cells co-transfected with CHIP-Myc and FLAG-CHIP WT or mutants for 48 h, NP40 lysis buffer, 1 mg lysate, IP with anti-FLAG or anti-Myc overnight at 4 °C, protein A-Sepharose; blotted with anti-Myc or anti-FLAG
[2] = biological target: T1, FLAG-CHIP WT (C-terminus of …); experiment: as above; settings: remark: other sources report otherwise

Molecule | binding [1] | binding [2]
Myc-tagged wild type CHIP (CHIP WT-Myc) (from UniProt Q9UNE7-1 1-303) | binds | 
Myc-tagged wild type CHIP (CHIP WT-Myc), Q9UNE7-1 1-303 (protein) MKGKEEKEGGARLGAGGGSPEKSPSAQELKEQGNRLFVGRKYPEAAACYGRAITRNPLVAVYYTNRALCYLKMQQHEQALADCRRALELDGQSVKAHFFLGQCQLEMESYDEAIANLQRAYSLAKEQRLNFGDDIPSALRIAKKKRWNSIEERRIHQESELHSYLSRLIAAERERELEECQRNHEGDEDDSHVRAQQACIEAKHDKYMADMDELFSQVDEKRKKRDIPDYLCGKISFELMREPCITPSGITYDRKDIEEHLQRVGHFDPVTRSPLTQEQLIPNLAMKEVIDAFISENGWVEDY |  | binds
